## Assay results

Data taken from PubChem BioAssay AID1159506, deposited by NCATS (2015).

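Genome-wide siRNA knockdown in TC32 Ewing sarcoma cells, comparing luciferase light from an NR0B1-promoter reporter with a CMV-promoter reporter 48 hours after transfection.
Each siRNA was applied at 20 nM.
A z-score of the log NR0B1-over-CMV signal, less the median of siRNAs with the same seed; more negative means a stronger specific loss of the NR0B1 reporter.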

This is part of the screen; most of the strongest results are not listed here.
Sequences are the guide (antisense) strand, without overhang.

UAAGCUUAGCCUUUAAGAG against TRMT61A read seed-corrected z-score 0.6948.
UUCAGAGUAAGAGUGGAAC against KIF24 read seed-corrected z-score 1.201.
AAUAUCUCAUGAAUCUUUC against PRDM5 read seed-corrected z-score -0.6419.
UCGGCGAUGAAGCUGAUCC against TMEM114 read seed-corrected z-score -0.4681.
AACAUGGUGACAAAAUUCC against MTNR1A read seed-corrected z-score -1.5.
AGUCUGUCAGCCUUUGUCC against SNAI1 read seed-corrected z-score -0.8061.
UUUUCGAAGCUUACGAUAG against IQGAP2 read seed-corrected z-score 0.5197.
UCAGGUGUCAUUUAGAUGG against C4orf36 read seed-corrected z-score 0.09456.
UUAACUGUUUGAAAGUACC against TAS2R9 read seed-corrected z-score 0.01428.
UGAGUGUUCACCUUUGCGA against PIN1 read seed-corrected z-score -0.0425.
UUAUAUCCAACAUCAGGAG against PITRM1 read seed-corrected z-score -0.03902.
UCUUGGAUCCCGAAGAUUU against TBL2 read seed-corrected z-score 0.5659.
AGUAGUGAGAAUAAAGGCC against FADS6 read seed-corrected z-score 1.646.
AAACAUCUUAUCACAGUAC against PLAGL2 read seed-corrected z-score -0.8482.
UCCUCAUAUACUGCGAUGG against SORCS1 read seed-corrected z-score 0.3428.
UCAACCAACAUUUCUCGGC against KLHL24 read seed-corrected z-score 0.2551.
UGUGCAAUUAGCAUACACU against IFT22 read seed-corrected z-score -0.3037.
UAAAAAGCAAUAGGAGAAC against LOC401478 read seed-corrected z-score 1.166.
UCUAUACCCUCUUUAACUC against WFDC12 read seed-corrected z-score -0.4041.
UGUCUGAUUGAGACCAUCC against LARP4 read seed-corrected z-score -0.4143.
UUUGAAGUCAGCAAUAAGA against KLK15 read seed-corrected z-score 0.267.
UUUCAUAAAAAGAGUACAC against ZNF430 read seed-corrected z-score 0.5748.
UACAUGUCCAGCGAUUUUU against DNASE2B read seed-corrected z-score -0.1926.
UUUCUUUCCCUUGCAGUGC against DNM1 read seed-corrected z-score -0.2195.
UUUGUCUAGGGAGAUGCGG against SERTAD3 read seed-corrected z-score 0.3416.
UAAUCGAACGGCAAAUUCG against PRTG read seed-corrected z-score -0.2601.
UUCUUGGUGAUAAGCAGUG against PLEKHG3 read seed-corrected z-score -0.3226.
UCACCGCCUUUUUGGAGCC against HIST1H2BF read seed-corrected z-score 0.1236.
UCCAGUACAACAAUGGGCU against TEX38 read seed-corrected z-score 0.007323.
AAAGUUAUCAAACUCGGAC against OTOF read seed-corrected z-score 0.4747.
UUUAGAAAUAUAGGCACUC against ACBD7 read seed-corrected z-score 0.32.
AAAGUAGCUCUUGAUGUCA against FEN1 read seed-corrected z-score 0.1108.
UUUCCGUCUCCAAUUCUGC against DNALI1 read seed-corrected z-score 0.04753.
AAUUUUAUUCAUGCAGUGC against XCL2 read seed-corrected z-score 1.412.
UGCAUGAAGAUUGUCUCUC against PADI1 read seed-corrected z-score -0.7903.
UUGAUUUCCGCAGAGCUUG against SPSB2 read seed-corrected z-score -0.702.

The first 4 entries again:

Sequence	gene	seed-corrected z-score
UAAGCUUAGCCUUUAAGAG	TRMT61A	0.6948
UUCAGAGUAAGAGUGGAAC	KIF24	1.201
AAUAUCUCAUGAAUCUUUC	PRDM5	-0.6419
UCGGCGAUGAAGCUGAUCC	TMEM114	-0.4681